This data set has as its target GST-ELAVL3 (UniProt Q14576). Nature of the data set: EMSA. The following applies: 5 mM Mg2+, RNA-EMSA: 20 mM Tris-HCl (pH not stated), 100 mM NaCl, 5 mM MgCl2, 2 mM DTT, 37 C 1 h, 6% native gel at 4 C, recombinant protein, protein details: N-terminal GST (pGEX-4T-1), label: 3'-biotin.

By UniProt entry, the sequences of proteins in these tests, tags left out. Where a name states a change or a piece, a line headed by the entry shows the natural chain unless it says otherwise.
UniProt Q14576: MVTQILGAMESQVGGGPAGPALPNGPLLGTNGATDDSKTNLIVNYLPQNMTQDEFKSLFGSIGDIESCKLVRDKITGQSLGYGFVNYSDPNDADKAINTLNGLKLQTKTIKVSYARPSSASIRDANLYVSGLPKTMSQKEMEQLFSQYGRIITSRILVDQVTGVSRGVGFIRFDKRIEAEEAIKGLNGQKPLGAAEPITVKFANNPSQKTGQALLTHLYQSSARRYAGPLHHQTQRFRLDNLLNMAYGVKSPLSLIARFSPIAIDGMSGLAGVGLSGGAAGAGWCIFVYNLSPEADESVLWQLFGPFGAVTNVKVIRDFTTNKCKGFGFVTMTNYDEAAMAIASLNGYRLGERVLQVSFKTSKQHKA

For at least one entry, the source does not settle the construct or the ends of the probe. A weaker result is weaker than the reference pair of the same experiment. At least one verdict rests on a figure or table, not on a statement of the authors.

For the sequence “CACUUUGCACAUUUUGAUUUUUUUUUUAAA [MYCN-3'UTR-F1]”, the binding result is reported as “binds”. Further, where the note is “pyrvinium pamoate”, the binding result was “binds more weakly”. “UUCAUUUUAAACACUACCUCAGUUAAUAUA [RICTOR-3'UTR-F3]”: the binding result is given as “binds”.
